Test results from PubChem BioAssay AID1487 (National Center for Advancing Translational Sciences (NCATS), 2009).
This is one part of the list. The main result of the screen is listed elsewhere. These columns were measured beside it and carry no call. Most of these compounds were active or inconclusive in the main read-out, so they are no random draw. The note in brackets gives the kind of curve behind each potency; many fits are weak.

Assay: qHTS Assay for Modulators of Lamin A Splicing
Details: HeLa LMNA splicing GFP/RFP minigene ratio, 48 h
In short: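 Read-out is the ratio of GFP to DsRed2 object intensity, acquired by 488 nm laser-scanning cytometry on HeLa lamin A-EGFP minigene reporter cells. Compound incubation 48 hrs at 37 °C in Opti-MEM with 2% FBS; DMSO 0.5% final.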

[1] = measured here: GFP splicing reporter channel
[2] = measured here: RFP viability control channel

SMILES | AC50 [1] | AC50 [2]
Cc1cc(C)cc(N(CCC(=O)O)S(=O)(=O)c2ccc3ccccc3c2)c1 | 5.62 µM [falling, partial curve, poor fit] | 20 µM [rising, single point]
N#Cc1c(NC(=O)C2CC=CCC2C(=O)O)sc2c1CCCCCC2 (centres undefined) |  | 14.1 µM [rising, partial curve]
C=CCn1c(SCc2ccc(C(=O)Nc3nccs3)cc2)nnc1-c1ccc(C)c(Cl)c1 |  | 22.4 µM [rising, single point]
CC1CCN(S(=O)(=O)c2ccc3ccccc3c2)CC1 |  | 25.1 µM [rising, single point]
CC(=O)c1c(C)[nH]c(C(=O)OCCOc2ccccc2)c1C | 0.00631 µM [rising, full curve, poor fit] | 20 µM [rising, partial curve, poor fit]
CCCCCCCC/C=C\CCCCCCCC(=O)NCCc1ccc(O)c(O)c1 | 10 µM [falling, partial curve] | 10 µM [falling, partial curve]
COc1ccc(C)cc1NC(=O)C(OC(=O)c1cccc(S(=O)(=O)N(C)c2ccccc2)c1)c1ccccc1 (centres undefined) | 0.2 µM [rising, partial curve] | 0.501 µM [rising, full curve, poor fit]
Cc1cc(C(F)(F)F)c(C#N)c(SCC(=O)Nc2nc3ccccc3s2)n1 | 3.16 µM [falling, partial curve, poor fit] | 35.5 µM [falling, partial curve, poor fit]
COc1ccc(/C(C)=N\NC(=O)c2ccc3c(c2)OCO3)cc1OC | 0.00316 µM [rising, full curve, poor fit] | 0.00501 µM [rising, full curve, poor fit]
FC(F)(F)c1ccc(Oc2ccccc2Cl)nc1 | 5.62 µM [falling, single point] | 
CCOc1ccc(NC(=O)CSc2nc3ccsc3c(=O)n2C(C)CC)cc1 (centres undefined) | 1.78 µM [falling, partial curve, poor fit] | 0.0891 µM [falling, full curve]
Cc1cc(OCC(=O)Nc2ccc(S(=O)(=O)N3CCN(C)CC3)cc2)ccc1Cl |  | 35.5 µM [rising, single point]
Cc1cc(C)nc(SCC(=O)N/N=C/c2cc(C)n(-c3ccccc3C)c2C)n1 |  | 31.6 µM [rising, single point]
COc1ccc(S(=O)(=O)Nc2ccccc2OC)cc1NC(=O)CC1CC2CCC1C2 (centres undefined) |  | 11.2 µM [rising, partial curve]
O=C(COc1cccc(NC(=O)c2cccs2)c1)c1ccc(F)cc1 | 12.6 µM [rising, partial curve] | 15.8 µM [rising, partial curve]
CCCC(=O)c1cc(F)c(N2CCN(C(=O)OCC)CC2)cc1C |  | 31.6 µM [rising, single point]
C/C(Cn1nnc([N+](=O)[O-])n1)=N\NC(=O)c1ccc(O)cc1O | 5.01 µM [rising, full curve, poor fit] | 12.6 µM [rising, partial curve]

SMILES | AC50 [1] | AC50 [2]
COc1ccc2[nH]c3c(N4CCN(Cc5ccc6c(c5)OCO6)CC4)ncnc3c2c1 |  | 8.91 µM [rising, partial curve]
Cc1ccc(/C=C/C(=O)Nc2ccccc2C(N)=O)cc1 |  | 15.8 µM [rising, single point]
COc1ccc(-c2noc(N3CCC(C(=O)N4CCN(c5ccccc5OC)CC4)CC3)n2)cc1 | 35.5 µM [rising, single point] | 35.5 µM [rising, single point]
O=C1c2ccccc2C(Nc2ccc3c(c2)OCCO3)N1Cc1ccc2c(c1)OCO2 (centres undefined) |  | 5.62 µM [rising, partial curve]
CC[n+]1ccc(/C=C/c2ccc(N(C)C)cc2)c2ccccc21 | 31.6 µM [falling, single point] | 3.98 µM [rising, single point]
COC(=O)c1ccccc1S(=O)c1snnc1C (centres undefined) | 0.501 µM [rising, full curve] | 0.794 µM [rising, partial curve]
COc1cc(-c2nc(-c3ccc4c(c3)-c3ccccc3S4(=O)=O)c(-c3ccccc3)[nH]2)cc(OC)c1O |  | 11.2 µM [rising, single point]
CC(C)(C)n1cnc2cc(NCc3cccs3)ccc21 | 0.01 µM [falling, full curve, poor fit] | 
COc1ccc(N(C(=O)CCl)C(C(=O)NCCc2ccccc2)c2cccs2)cc1Cl (centres undefined) | 35.5 µM [falling, single point] | 35.5 µM [falling, single point]
O=C(Nc1nc(-c2ccccc2)cs1)c1ccc2c(=O)n3c(nc2c1)CCCCC3 | 35.5 µM [falling, single point] | 
CCOC(=O)CC(=O)CSc1nc(-c2ccccc2)cc(-c2ccccc2)c1C#N |  | 11.2 µM [rising, single point]
Fc1ccccc1N1CCN(Cc2nc(-c3ccc(Cl)cc3Cl)no2)CC1 |  | 25.1 µM [rising, single point]
Cc1ccc(-n2ncc3c(SCc4ccccn4)ncnc32)c(C)c1 | 0.794 µM [falling, full curve, poor fit] | 
CC(NC(=S)Nc1ccc(S(=O)(=O)N2CCOCC2)cc1)C1CC2CCC1C2 (centres undefined) |  | 14.1 µM [rising, single point]
O=C(CSc1nnc(Nc2ccccc2)s1)Nc1cccc(S(=O)(=O)N2CCCCC2)c1 | 10 µM [rising, partial curve, poor fit] | 20 µM [rising, partial curve, poor fit]
O=C1/C(=C/c2cccc([N+](=O)[O-])c2)CCc2ccccc21 |  | 31.6 µM [rising, single point]
O=C(Nc1ccccc1)N1CCC(c2nc(-c3ccc(S(=O)(=O)N4CCOCC4)cc3)no2)CC1 | 3.55 µM [falling, single point] | 35.5 µM [rising, single point]

For convenience, 2 of the compounds above.
SMILES | AC50 [1] | AC50 [2]
Cc1cc(C)cc(N(CCC(=O)O)S(=O)(=O)c2ccc3ccccc3c2)c1 | 5.62 µM [falling, partial curve, poor fit] | 20 µM [rising, single point]
N#Cc1c(NC(=O)C2CC=CCC2C(=O)O)sc2c1CCCCCC2 (centres undefined) |  | 14.1 µM [rising, partial curve]
